These are yes or no findings as the source states them, for the method shown. Some binding calls cover weakened binding; strength is not graded here.
Target: cynomolgus ("cyno") NBL1 (cynomolgus)
Test: ELISA, IgG1 format

B1: Antibody YU1019-A12 (antibody, V domains shown)
VH: EVQLLESGPGLVKPSQTLSLTCTVSGGSISSGDYYWSWIRQPPGKGLEWIGYIYYSGSTYYNPSLKSRVTISVDTSKNQFSLKLSSVTAADTAVYYCARGRRLLLFHWGQGTTVTVSS
VL: QSVLTQPPSVSAAPGQKVTISCSGSGSSIGNNYVSWYQQVPGTPPKLLIYDNNKRASGIPDRFSGSKSGTSATLGITGLQTGDEADYYCGTWDNSLSAVVFGGGTKLTVL
  binding: binds

B2: Antibody YU1018-D06 (antibody, V domains shown)
VH: QVQLVESGPGLVKPSQTLSLTCTVSGGSISSGGYYWSWIRQHPGKGLEWIGYIYYSGSTYYNPSLKSRVTISVDTSKNQFSLKLSSVTAADTAVYYCARSGAAGIPWFDPWGQGTLVTVSS
VL: QSVLTQPPSVSAAPGQKVTISCSGSSSNIGNNYVSWYQQLPGTAPKLLIYENNERPSGIPDRLSGSKSGTSATLAITGLQTGDEADYYCGTWDSSLSAVVFGGGTKLTVL
  binding: binds

Reference: patent publication US20260265357A1
